Record: PubChem BioAssay AID1259425 (University of Nebraska Medical Center, 2018)

- Screen: 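Compare each knockdown with KSR1 silencing using changes in marker transcripts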 (primary screen)
- Cells: HCT116 human colon cancer cells
- Reagent: siRNA pool against human genes, 50 nM siRNA
- Read-out: 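mRNA of six signature genes measured together by branched-DNA assay after 50 nM siRNA pool, blank removed, divided by geometric mean of two housekeeping genes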
- Direction: BNIP3L mRNA: higher = more BNIP3L transcript after knockdown
In all, the deposit lists about 14,000 reagents; below is a random part of them. Not all columns of the deposit are shown. Not given: the time to read-out.

BNIP3L mRNA, set 1	gene
0.347	MRPS18C
0.106	STK25
0.0819	FAM230C
0.206	ATRAID
0.0914	PLAAT4
0.135	HEMK1
0.167	LAMA4
0.0661	PRRG1
0.118	SLC1A2
0.0845	MUC4
0.0756	SLC4A1
0.164	ZCCHC3
0.102	CNOT3
0.186	SERPINA3
0.181	COQ3
0.0911	TP53INP1
0.199	TAF3
0.191	PSG7
0.106	PPARGC1A
0.24	SLC35F2
0.0742	CLCN6
0.0777	PSEN1
0.12	VPS50
0.0494	BAG5
0.0324	CUX2
0.0779	MCM8
0.154	MPST
0.0959	ZNF512
0.166	CHP1
0.109	IGFALS
0.156	REEP5
0.117	NFKB1
0.0842	HNRNPAB
0.0823	P2RX3
0.146	EGFL8
0.0932	PTP4A1
0.12	CPNE5
0.119	TREX2
0.0952	HOXC10
0.0699	UTP4
0.0721	REL
0.0821	ACTL6B
0.163	SMIM11
0.0832	RGS20
0.123	CST3
0.0968	HSPB3
0.076	REV3L
0.172	CCR1
0.207	MAS1L
0.0783	KLC1

Reformatted: entries from further up
{"gene": "HOXC10", "BNIP3L mRNA, set 1": 0.0952}
{"gene": "UTP4", "BNIP3L mRNA, set 1": 0.0699}
{"gene": "REL", "BNIP3L mRNA, set 1": 0.0721}
{"gene": "ACTL6B", "BNIP3L mRNA, set 1": 0.0821}
{"gene": "SMIM11", "BNIP3L mRNA, set 1": 0.163}
{"gene": "RGS20", "BNIP3L mRNA, set 1": 0.0832}
{"gene": "CST3", "BNIP3L mRNA, set 1": 0.123}
{"gene": "HSPB3", "BNIP3L mRNA, set 1": 0.0968}
